Patent publication US4806566A, “Anti-gram positive bacteria tri-yne carbonates” (Merck & Co., Inc., priority 1987, dated 1989)
Converted amounts (≈) assume the structure as drawn.

Tested on: Staphyloccoccus aureus methicillin-resistant (S. aureus Meth-R)
Assay: Minimum inhibitory concentration, agar dilution, methicillin-resistant Staphylococcus aureus
Assay type: cell-based
Conditions: 24 h, one isolate per line, 10^4 cfu/spot, trypticase soy agar, 24 hours at 35° C.
Experimental: The free acid of the compound of formula I was prepared as aqueous solutions at a concentration of 1.28 mg/ml. Comparative agents vancomycin and streptomycin were prepared at 1.28 mg/ml in Sorensens' buffer, pH 7.
Each of the drugs was serially diluted twofold in 20×100 mm sterile petri dishes with the aid of a Pipetman. To each plate containing 1 ml of the antibiotic dilution was added 9 ml molten trypticase soy agar (TSA) (BBL) to yield final drug concentrations ranging from 128-0.031 mcg/ml. Plates were swirled to mix, allowed to solidify at room temperature and were stored overnight at 5° C.
Cultures were grown in trypticase soy broth (TSB) for 16 hours at 35° C. They were diluted 1-100 in TSB to obtain an inoculum of 10^4 cfu/spot when plated using a Denley multipoint inoculator calibrated to deliver 0.0015 ml. Inoculated plates were incubated for 24 hours at 35° C.
The minimum inhibitory concentration (MIC) was defined as the lowest concentration that allowed no growth or a barely visible haze.

Question: For `CN[C@H](CC(C)C)C(=O)N[C@H]1C(=O)N[C@@H](CC(N)=O)C(=O)N[C@H]2C(=O)N[C@H]3C(=O)N[C@H](C(=O)N[C@H](C(=O)O)c4cc(O)cc(O)c4-c4cc3ccc4O)[C@H](O)c3ccc(c(Cl)c3)Oc3cc2cc(c3O[C@@H]2O[C@H](CO)[C@@H](O)[C@H](O)[C@H]2O[C@H]2C[C@](C)(N)[C@H](O)[C@H](C)O2)Oc2ccc(cc2Cl)[C@H]1O` [Vancomycin], which MIC is on record?
Answer: Its MIC is 2 µg/mL (≈ 1.38 µM).
